Usually AC50 stands for the midpoint of the concentration-response curve, whichever way the signal moves.

The other results are listed elsewhere or left out. These are further read-outs of the screen, such as a control signal, another cell line or another target. No call is given for them. Compounds called inactive in the main read-out are mostly missing here. Words in brackets tell the shape of the fitted curve; partial curves, single points and poor fits give uncertain potencies.

A short description of this assay: qHTS Assay for Lipid Storage Modulators in Drosophila S3 Cells.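 On cell number change: cells counted by Cell Tracker Red CMTPX staining in the red channel.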 The conditions noted are these: BODIPY lipid droplet fluorescence, 18-24 h; for cell number change: measured here: cell count max response, cells fed with added oleic acid; for AC50: measured here: lipid fluorescence (Fed channel) AC50, cells fed with added oleic acid. The method, boiled down:
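Laser-scanning cytometry quantifies lipid droplet accumulation (500–530 nm total intensity; droplet/cell object ratio) in oleic acid-fed (400 uM added) Drosophila S3 cells treated with a concentration series. 20 uM Triacsin C defined 100% inhibition.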

For `CCc1nnc(NS(=O)(=O)c2ccc(N/C=C(\C=O)c3nc4cc(Cl)ccc4o3)cc2)s1`, the cell number change is -5.96% and the AC50 is 29.1 µM [rising, single point].
With `O=C(O)c1cc(NC(=O)c2ccc(Br)cc2)cc(NC(=O)c2ccc(Br)cc2)c1`, the cell number change is -1.59% and the concentration at half-maximal activity (AC50) is 6.51 µM [rising, single point].

(Values after PubChem BioAssay AID2685 (National Center for Advancing Translational Sciences (NCATS), 2010).)
